{"source": "the supplement of paper PMC4635364", "note": "Counter-ions that a name gives are not always drawn. The list shows a part of the results. This data set is noisy: repeats of one test often differ as much as different tests do.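 ReNCell VM, a human fetal ventral-midbrain neural progenitor line, was differentiated without mitogens. Blinded raters scored images stained for doublecortin (early neurons) or tyrosine hydroxylase (dopaminergic neurons) against untreated wells (0 = no change). Scores were averaged across repeats and both raters, and compounds averaging 2 or more were selected as hits for retesting.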", "data": [{"tested_on": "ReNCell VM", "experiment": "neuronal differentiation score (DCX+ cell fraction vs untreated, manual image score) (score (-3 to 3)); higher = more neuronal differentiation", "details": "library: LOPAC; 2 uM; 2 weeks", "values": [{"compound": "CNCCc1cnc(CCC(c2ccccc2)c2ccccc2)[nH]1", "note": "[N-Methylhistaprodifen dioxalate salt]", "neuronal differentiation score": "inactive: 0"}, {"compound": "O=C(O)CCCCCCCC(=O)O", "note": "[Azelaic acid]", "neuronal differentiation score": "inactive: 0"}, {"compound": "CC1CNCCN1S(=O)(=O)c1cccc2cnccc12", "note": "(stereo not drawn)", "neuronal differentiation score": "inactive: 0"}, {"compound": "NCCC1CCCC(CCN)N1", "note": "(stereo not drawn) [MDL 26,630 trihydrochloride]", "neuronal differentiation score": "inactive: 0"}, {"compound": "CCCCCCCCCCCCCCCC(=O)NCC(COP(=O)([O-])OCC[N+](C)(C)C)OCC", "note": "(racemic) [rac-2-Ethoxy-3-hexadecanamido-1-propylphosphocholine]", "neuronal differentiation score": "inactive: 0"}]}, {"tested_on": "ReNCell VM", "experiment": "neuronal differentiation score (DCX+ cell fraction vs untreated, manual image score) (score (-3 to 3)); higher = more neuronal differentiation", "details": "library: Phytochemical; 2 uM; 2 weeks", "values": [{"compound": "COc1ccc2c(c1)N(C(C)=O)C1C3COC(C)C4CN5CCC21C5CC43", "note": "(stereo not drawn) [Strychnospermine]", "neuronal differentiation score": "inactive: 0"}, {"compound": "C=C(C)[C@@H]1CC[C@]2(CO)CC[C@]3(C)[C@H](CC[C@@H]4[C@@]5(C)CC[C@H](O)C(C)(C)[C@@H]5CC[C@]43C)[C@@H]12", "note": "[Betulin]", "neuronal differentiation score": "inactive: 0"}, {"compound": "Nc1ccn([C@@H]2O[C@H](CO)[C@@H](O)[C@H]2O)c(=O)n1", "note": "[Cytidine]", "neuronal differentiation score": "inactive: 0"}]}]}
